Test results taken from publication PMC7419506, “KN3014, a piperidine-containing small compound, inhibits auto-secretion of IL-1β from PBMCs in a patient with Muckle–Wells syndrome” (Scientific Reports, 2020).
Results are given in words; binding and its absence hold for the method and conditions named. Binding can be weak; no strength is given.

Chains of the proteins cited; added tags and fusions are not shown. Lines headed by an entry give the natural chain unless they say otherwise; changes in a name come on top.
UniProt Q9ULZ3: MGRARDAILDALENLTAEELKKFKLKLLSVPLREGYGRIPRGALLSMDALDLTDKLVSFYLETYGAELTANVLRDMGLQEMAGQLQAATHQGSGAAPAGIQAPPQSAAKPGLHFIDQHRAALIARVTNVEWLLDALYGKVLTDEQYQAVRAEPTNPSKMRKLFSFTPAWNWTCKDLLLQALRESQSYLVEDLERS

Target: T1, full-length AIM2-Btn (UniProt O14862)
T1 sequence (chain, biotin): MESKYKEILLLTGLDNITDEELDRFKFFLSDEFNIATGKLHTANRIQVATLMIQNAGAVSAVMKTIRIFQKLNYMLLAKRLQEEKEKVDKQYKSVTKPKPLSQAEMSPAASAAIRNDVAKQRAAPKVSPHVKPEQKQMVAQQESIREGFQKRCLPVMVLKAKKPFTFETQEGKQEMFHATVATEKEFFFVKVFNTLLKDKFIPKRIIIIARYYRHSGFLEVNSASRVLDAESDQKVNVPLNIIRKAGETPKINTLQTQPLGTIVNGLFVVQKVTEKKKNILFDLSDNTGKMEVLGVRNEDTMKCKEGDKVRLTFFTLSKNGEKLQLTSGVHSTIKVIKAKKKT
Test: AlphaScreen or HTRF; 100 ng of each synthesized protein in ALPHA buffer (100 mM Tris-HCl pH 8.0, 0.01% Tween 20, 1 mg/mL BSA); streptavidin donor beads, protein-A acceptor beads and 5 µg/mL anti-FLAG mAb M2; 25 °C, 24 h; with or without small compounds (KN3014, KN8311, KN1960, KN5330, KN7644, MCC950); no purification told

“N-terminal FLAG-tagged PYD of ASC (from UniProt Q9ULZ3) (domain or fragment)” was tested, and the binding was “binds”.
